The results in this text go back to article PMC6219760.

Protein sequences, listed by entry. Tags and fused reporters are not part of them.
UniProt A0AC58HE68: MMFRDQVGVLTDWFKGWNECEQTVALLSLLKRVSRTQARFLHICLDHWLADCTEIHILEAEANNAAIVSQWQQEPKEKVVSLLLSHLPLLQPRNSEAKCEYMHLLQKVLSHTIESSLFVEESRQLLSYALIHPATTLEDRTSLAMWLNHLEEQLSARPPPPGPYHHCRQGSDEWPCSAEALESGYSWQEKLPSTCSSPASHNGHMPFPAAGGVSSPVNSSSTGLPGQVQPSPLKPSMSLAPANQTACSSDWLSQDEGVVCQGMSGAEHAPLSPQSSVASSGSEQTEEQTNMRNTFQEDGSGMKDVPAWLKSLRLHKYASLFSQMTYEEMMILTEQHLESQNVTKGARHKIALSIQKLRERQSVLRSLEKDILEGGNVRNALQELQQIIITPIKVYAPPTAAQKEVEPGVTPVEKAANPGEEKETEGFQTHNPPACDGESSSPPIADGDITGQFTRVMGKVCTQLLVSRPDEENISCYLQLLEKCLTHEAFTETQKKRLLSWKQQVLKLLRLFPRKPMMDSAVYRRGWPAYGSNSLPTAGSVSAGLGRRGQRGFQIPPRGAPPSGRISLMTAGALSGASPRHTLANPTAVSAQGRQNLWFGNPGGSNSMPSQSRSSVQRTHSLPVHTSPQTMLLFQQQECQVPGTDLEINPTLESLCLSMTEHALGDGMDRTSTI

The assay concerns the target T1, Buc-GFP (Bucky ball fused to eGFP), from transgenic zebrafish (zebrafish) (UniProt H0WFA5).
T1 sequence: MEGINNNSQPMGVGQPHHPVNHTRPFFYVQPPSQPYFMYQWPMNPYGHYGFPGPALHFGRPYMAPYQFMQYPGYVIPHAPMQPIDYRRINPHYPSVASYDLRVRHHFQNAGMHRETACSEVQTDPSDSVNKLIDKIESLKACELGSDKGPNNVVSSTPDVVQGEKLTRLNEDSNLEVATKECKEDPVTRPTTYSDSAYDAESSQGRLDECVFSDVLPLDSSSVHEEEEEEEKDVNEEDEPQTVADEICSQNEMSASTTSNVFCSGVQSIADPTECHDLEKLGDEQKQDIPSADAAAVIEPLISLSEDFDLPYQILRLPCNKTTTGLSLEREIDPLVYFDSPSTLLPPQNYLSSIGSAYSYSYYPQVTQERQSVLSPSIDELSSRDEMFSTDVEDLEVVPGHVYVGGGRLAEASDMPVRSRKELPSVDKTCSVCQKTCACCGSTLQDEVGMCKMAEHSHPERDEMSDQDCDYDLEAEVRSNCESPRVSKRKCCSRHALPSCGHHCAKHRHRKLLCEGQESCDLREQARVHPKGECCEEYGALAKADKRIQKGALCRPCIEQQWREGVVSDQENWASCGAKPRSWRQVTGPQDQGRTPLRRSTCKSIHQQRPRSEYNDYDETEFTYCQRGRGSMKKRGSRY
Nature of the assay: affinity purification with mass spectrometry; Buc-GFP held on GFP-Trap magnetic beads from extracts of Buc-GFP transgenic zebrafish embryos; GFP-control samples; lysis buffer 10 mM Tris pH 7.5, 150 mM NaCl, 0.5 mM EDTA, 0.5% NP-40.

No constants are given. Whether binding was seen depends on the method and setting. In cells and extracts the contact can be indirect. These calls come from enrichment with a bait or labelling near it, and not all partners need be listed. No binding means not detected with the bait. Tags and fused reporters may be left off the sequences shown.

As to MACF1, endogenous in zebrafish embryos, the binding entry is listed as “binds”.
Then “Smaug homolog (Samd4b), endogenous in zebrafish embryos (from UniProt A0AC58HE68 1-674)”, with “no binding”.
